Laboratory results from the supplement of paper PMC10338343.
± gives the standard deviation. Some of the results follow. Many entries were measured with a wide error.

system: EfPiwi piRISC loaded with L1MC piRNA (26 nt); experiment: pre-steady-state target cleavage rate (min^-1); guide: L1MC piRNA 5'p-UAACUAAAUACUAUGCAAGCUGUAGG; MIWI and MILI are mouse PIWI proteins and EfPiwi is from a freshwater sponge; tags in brackets are library labels; higher = faster piRNA-guided slicing of the target; conditions: auxiliary factor: 500 nM Ephydatia muelleri Gtsf1
Summary of the method: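 Cleave-'n-Seq used a transcribed, DNA-blocked target RNA library at 0.1 nM and active affinity-purified piRISC with one synthetic guide at 1 nM, with or without 500 nM GTSF1 partner protein, in HEPES–potassium acetate buffer at 33 °C for 0–8 or 0–960 min. Uncleaved targets were sequenced and normalised to depth and to weakly complementary targets, and three trials were pooled with k3 capped at 0.0001 min^-1. The pre-steady-state cleavage rate was estimated by a burst-and-steady-state fit.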

Sequence | pre-steady-state target cleavage rate
UCCUGCUACUCCUUGCAUAGUAUUUAGUUA | 0.0106 ± 0.004
UCCUGGAUGAGCUGUGCAUAGUAUUUAGUUA | 0.0255 ± 0.0063
UCCUGGAUGUGCUUCCAUAGUAUAUAGUUA | 0.000309 ± 0.012
UCCUGGUACAUCUUGCAUAGUAUUUAGUUA | 0.0254 ± 0.01
UCCUCCUUGUGCUUGCAUAGUAUUUAGUAA | 0.00675 ± 0.0029
UCCUGGAUGUCGAACGAUAGUAUUUAGGUA | < 0.0001
UCCUGCUACAGACUUGCAUAGUAUUUAGUUA | 0.00603 ± 0.0024
UCCUGGAUGUCGAACGUAUGUUAUUUAGUUA | < 0.0001
UCCUGGAUCAGCUUGCAAAGUAUUUAGUUA | 0.0218 ± 0.0057
UCCUGGUACAGCUUGCAUAGUAAUUAGUUA | 0.00654 ± 0.0025
UCCUGGAACAGCUUGCAUAGUAUUUAGUUU [g2:g23:cont:t1U] | 0.0156 ± 0.0055
UCCUGGAUGUCGUUUGCAUAGUAUUUAGUUA | 0.0445 ± 0.013
UCCUCCUACAGGAAGCAUAGUAUUUAGUAA | 0.00397 ± 0.0031
UCCUGCUACAGCUUCCAAAGUAUUUAGUUA | 0.00321 ± 0.0019
UCCUCCUACAGCUUGCAUAGUAUUUAGUUUA | 0.145 ± 0.039
UCCUGGAUGAGCUUCGCAUAGUAUUUAGUUA | 0.0219 ± 0.0059
UCCUGGAUGUCGAUGCAUUGAAUUUAGUUA | 0.000216 ± 0.013
UCCUGGAUCAGCAUGCAUACUAUUUAGUUA | 0.00409 ± 0.0018
UCCUGGAUGAGCUUGGAUAGUAAUUAGUUA | 0.00302 ± 0.0021
UCCUGCUACAGCUUGCAUAGUAUUUAUUUA | 0.0055 ± 0.0037
UCCUGCUACAGCUUGCAUAGUAUGUAGUUA | 0.00311 ± 0.0014
UCCUCCUACACCUUGCAUAGUAUAUAGUUA | 0.00711 ± 0.0039
UCCUGGAUGUCGAACGUAAGUAUUAAGAUA | 0.000203 ± 0.024
UCCUGCUACAGGAUGCAUAGUAUUUAGUUA | 0.0191 ± 0.0043
UCCUGGUACUGCUUGCAUAGUAAUUAGUUA | 0.114 ± 0.043
UCCUCCUACAGCAUGCAUACUAUUUAGUUA | 0.00724 ± 0.0028
UCCUGGAUCACCUUGCAUAGUAUUUAGAUA | 0.00551 ± 0.005
UCCUGGAUGUGCUUGCAUAGAAUUUUGUUA | 0.000495 ± 0.0069
UCCUCGUACAGCUUGCAUAGUAUUUAGUAA | 0.00794 ± 0.0029
UCCUCCUACAGCUUGCAUAGUAAUUACUUA | 0.005 ± 0.0027

As entered above:
In pre-steady-state target cleavage rate, UCCUCGUACAGCUUGCAUAGUAUUUAGUAA has the entry 0.00794 ± 0.0029
In pre-steady-state target cleavage rate, UCCUGGAUGUCGAACGUAAGUAUUAAGAUA has the entry 0.000203 ± 0.024

same assay, conditions: auxiliary factor: none (no Gtsf1)

Sequence | pre-steady-state target cleavage rate
UCCUGGAUGUCCUUGCAUAGUAUUUAGGUUA | 0.000318 ± 0.024
UCCUGCUACAGGUUGCAUAGUAUUUAGUAA | 0.000643 ± 0.0099
UCCUGCUACAGCUUGCAUAGUAUUCAGUUA | 0.000887 ± 0.0079
UCCUGCUACAGCUUGCUUUGUAUUUAGUUA | 0.000993 ± 0.0081
UCCUGGUACAGGCUUGCAUAGUAUUUAGUUA | 0.00112 ± 0.014
UCCUGGAUCAGGUUGCAUAGUAUUAAGUUA | 0.000665 ± 0.015
UCCUGGAUGUCGAUCCAUAGUAAUUAGUUA | < 0.0001
UCCUGGAUGUCGAACGUUAGUAUUUAGUAA | 0.000297 ± 0.018
UCCUGCUACAGUCUUGCAUAGUAUUUAGUUA | 0.000641 ± 0.01
UCCUGGUACAGGUUGGAUAGUAUUUAGUUA | 0.000278 ± 0.033
